# According to PubChem BioAssay AID1347076 (National Center for Advancing Translational Sciences (NCATS), 2019):
# Among all 400,000 compounds or so, about 13,000 (3.2%) were called active. This list was built around the results that the source calls inconclusive (neither active nor inactive); the mix of calls is not that of the screen. Calls come from the whole dose curve; as a rule, active = well fitted cell-killing curve with a large enough effect; inconclusive = small, poorly fitted or top-dose-only effect, or effect the other way; inactive = flat fitted curve, though single readings scatter. Potencies of inconclusive entries are doubtful fits and often do not repeat.
# Assay: qHTS assay for MDR1-selective chemotherapeutics: Primary screen using the drug-selected MDR subline cells KB-V1; note: nearly all actives have a fitted effect of over 60% in size
# Details: KB-V1 MDR cells viability, CellTiter-Glo, 72 h; series mostly up to 46.1 µM
# In short: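 qHTS viability screen in drug-selected KB-V1 MDR cells: 72 h compound treatment at 37 degrees C, ATP luminescence end point.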
# Potency is the fitted concentration of half-maximal effect.
row,SMILES,Potency
1,COCC(C)n1c(C)cc(C(=O)CN2c3cccc4cccc(c34)S2(=O)=O)c1C (configuration not stated),inactive
2,Fc1ccc(-c2cn3cc(C(F)(F)F)cc(Cl)c3n2)cc1,inactive
3,O=C(Nc1nnc(S(=O)(=O)N2CCCCC2)s1)c1cccc(Br)c1,inactive
4,Nc1nc(Nc2ccc(Cl)cc2)nc2ccccc12,active: 18.4 µM
5,CCN(CC)S(=O)(=O)c1ccc(C(C)NCC(=O)Nc2ccccc2C(=O)NC2CC2)cc1 (configuration not stated),"inconclusive: 0.58 µM [cytotoxic, partial curve, poor fit]"
6,CC1(C2CC2)NC(=O)N(CC(=O)Nc2ccc(OC(F)F)cc2)C1=O (configuration not stated),inactive
7,Cc1cccc(N2CCN(Cc3oc(CO)cc(=O)c3O)CC2)c1C,"inconclusive: 22.4 µM [cytotoxic, single point]"
8,CCOc1ccc(/C=N/Nc2cc(N3CCOCC3)nc(C)n2)c(O)c1,inactive
9,COCC(C)NC(=O)NC(=O)c1ccc(Cl)cc1 (configuration not stated),"inconclusive: 23.1 µM [cytotoxic, partial curve, poor fit]"
10,COc1ccc(NC(=O)Cc2coc3cc(C)c(C(C)C)cc23)cc1S(=O)(=O)N1CCOCC1,"inconclusive: 20.6 µM [cytotoxic, single point]"
11,COc1ccc(/C=N/NC(=O)c2ccn[nH]2)cc1COc1ccc([N+](=O)[O-])c(C)c1,inactive
12,COc1ccc(C)c(NC(=O)NCCc2cnc[nH]2)c1,"inconclusive: 29.1 µM [rising, single point]"
13,O=C(CN1C(=O)c2ccccc2S1(=O)=O)NC1CC2CCC1C2 (configuration not stated),"inconclusive: 29.1 µM [rising, single point]"
14,CCN(CC)c1ncnc2c1ncn2[C@H]1CN(Cc2ccc3c(c2)OCO3)C[C@@H](CO)O1,inactive
15,CCOc1nc(C)ccc1-c1noc(-c2ccco2)n1,"inconclusive: 10.3 µM [cytotoxic, partial curve]"
16,CCOC(=O)COC(=O)c1ccc(Oc2cc(C)nc(SC)n2)cc1,inactive
17,COC(=O)c1sc2cccc(F)c2c1S(=O)(=O)NCc1ccccc1Cl,inactive
18,COc1ccc(C(C(=O)NC2CCCCC2)N(C(=O)c2ccccn2)c2cccnc2)cc1 (configuration not stated),inactive
19,CN(C)c1nc(NC(C)(C)C)nc(SCC(=O)Nc2ccccc2)n1,active: 8.2 µM
20,Cc1cnc(NC(=O)c2ccc(OCC3CCCO3)cc2)s1 (configuration not stated),"inconclusive: 11.6 µM [cytotoxic, partial curve, poor fit]"
21,CC(C)(C)c1ccc(C(=O)N2CCCC2c2cccs2)cc1 (configuration not stated),"inconclusive: 18.4 µM [cytotoxic, single point]"
22,COc1cccc(/C=N/NC(=O)c2ccc([N+](=O)[O-])cc2Cl)c1O,active: 9.2 µM
23,CCOc1ccc(-c2cc(CCCC(=O)NCCc3ccc(SC)cc3)no2)cc1,inactive
24,C=CCOc1nc(-c2ccncc2)nc2ccccc12,"inconclusive: 29.1 µM [cytotoxic, single point]"

# Some of the entries so far, bar-delimited.
row | SMILES | Potency
8 | CCOc1ccc(/C=N/Nc2cc(N3CCOCC3)nc(C)n2)c(O)c1 | inactive
9 | COCC(C)NC(=O)NC(=O)c1ccc(Cl)cc1 (configuration not stated) | inconclusive: 23.1 µM [cytotoxic, partial curve, poor fit]
10 | COc1ccc(NC(=O)Cc2coc3cc(C)c(C(C)C)cc23)cc1S(=O)(=O)N1CCOCC1 | inconclusive: 20.6 µM [cytotoxic, single point]
11 | COc1ccc(/C=N/NC(=O)c2ccn[nH]2)cc1COc1ccc([N+](=O)[O-])c(C)c1 | inactive
12 | COc1ccc(C)c(NC(=O)NCCc2cnc[nH]2)c1 | inconclusive: 29.1 µM [rising, single point]
13 | O=C(CN1C(=O)c2ccccc2S1(=O)=O)NC1CC2CCC1C2 (configuration not stated) | inconclusive: 29.1 µM [rising, single point]
14 | CCN(CC)c1ncnc2c1ncn2[C@H]1CN(Cc2ccc3c(c2)OCO3)C[C@@H](CO)O1 | inactive
15 | CCOc1nc(C)ccc1-c1noc(-c2ccco2)n1 | inconclusive: 10.3 µM [cytotoxic, partial curve]
16 | CCOC(=O)COC(=O)c1ccc(Oc2cc(C)nc(SC)n2)cc1 | inactive
17 | COC(=O)c1sc2cccc(F)c2c1S(=O)(=O)NCc1ccccc1Cl | inactive
18 | COc1ccc(C(C(=O)NC2CCCCC2)N(C(=O)c2ccccn2)c2cccnc2)cc1 (configuration not stated) | inactive
19 | CN(C)c1nc(NC(C)(C)C)nc(SCC(=O)Nc2ccccc2)n1 | active: 8.2 µM
20 | Cc1cnc(NC(=O)c2ccc(OCC3CCCO3)cc2)s1 (configuration not stated) | inconclusive: 11.6 µM [cytotoxic, partial curve, poor fit]

# (listing goes on)

row,SMILES,Potency
1,CCC(Oc1ccccc1)C(=O)Nc1ccc(-c2nnc(-c3ccco3)o2)cc1 (configuration not stated),"inconclusive: 20.6 µM [cytotoxic, single point]"
2,Cc1nc2ccccn2c1/C(O)=C1\C(=O)C(=O)N(CCCn2ccnc2)C1c1ccncc1 (configuration not stated),inactive
3,COc1cc(NC(=O)c2noc3c2CC(C(C)(C)C)CC3)cc(OC)c1OC (configuration not stated),active: 16.4 µM
4,O=[N+]([O-])c1cc(Cl)cc(C2=NCCN2)c1,inactive
5,COCCn1c(C)cc(O)c(C(c2ccccc2Cl)N2CCN(c3ccccc3)CC2)c1=O (configuration not stated),inactive
6,CC(OC(=O)c1ccccc1OCCOc1ccccc1)C(=O)Nc1ccc(Br)cc1 (configuration not stated),inactive
7,O=C1NC[C@@H](CCCCN2C[C@H](Cc3ccc(O)cc3)N(Cc3ccccc3)C(=O)C2=O)N(CCC2CCCCC2)C1=O,"inconclusive: 20.6 µM [rising, single point]"
8,Cc1ccc(-c2noc(CCC(=O)Nc3cccc(C#N)c3)n2)cc1,"inconclusive: 29.1 µM [cytotoxic, single point]"
9,Cc1cccc(/C=C2\Sc3ccc(C(=O)N4CCCCC4)cc3N(C)C2=O)c1,"inconclusive: 29.1 µM [cytotoxic, single point]"
10,Fc1cccc(NC(=S)N2CCn3cccc3C2c2cccnc2)c1 (configuration not stated),"inconclusive: 29.1 µM [cytotoxic, single point]"
11,OC(COc1ccc2c(c1)CCC2)CN1CCN(c2cccc(Cl)c2)CC1 (configuration not stated),"inconclusive: 32.6 µM [cytotoxic, single point]"
12,Cc1cc2c(cc(C(=O)OC(C(=O)NCc3ccco3)C(C)C)n2C)o1 (configuration not stated),"inconclusive: 23.1 µM [cytotoxic, single point]"
13,CCNC(=O)CC1C(=O)N(c2ccc(F)cc2)C(=O)N1Cc1cccs1 (configuration not stated),inactive
14,O=C(Nc1ccccc1)Nc1cc([N+](=O)[O-])ccc1F,"inconclusive: 20.6 µM [cytotoxic, single point]"
15,COc1ccccc1N1CCN(C(=O)c2cccc(N3C(=O)NC4CC3(C)Oc3c(OC)cccc34)c2)CC1 (configuration not stated),"inconclusive: 0.0116 µM [rising, full curve]"
16,CC(C)c1nc(SCC(=O)Nc2ccc(N(C)C)cc2)c2ccccc2n1,"inconclusive: 29.1 µM [cytotoxic, single point]"
17,C=CCN(C(=O)c1csnn1)C(C(=O)NCc1ccccc1)c1ccccc1F (configuration not stated),"inconclusive: 11.6 µM [cytotoxic, single point]"
18,O=C(NCC(c1ccco1)S(=O)(=O)c1cccs1)c1c(F)cccc1F (configuration not stated),inactive
19,CCCCCCCCCC[n+]1cccc2cc(Br)ccc21,"inconclusive: 23.1 µM [cytotoxic, single point]"
20,O=C(NCC(c1cccs1)N1CCOCC1)c1ccccc1NS(=O)(=O)c1ccc(Br)cc1 (configuration not stated),"inconclusive: 18.4 µM [cytotoxic, partial curve]"
21,COc1ccccc1OCC(=O)N/N=C/C=C/c1ccc([N+](=O)[O-])o1,active: 16.4 µM
22,CN(C)S(=O)(=O)c1cccc(NC(=O)COc2ccccc2C(=O)NCc2ccccc2)c1,active: 10.3 µM
23,O=C(c1cc(C(=O)N2CCN(c3ccc(F)cc3)CC2)cc([N+](=O)[O-])c1)N1CCN(c2ccc(F)cc2)CC1,"inconclusive: 1.3 µM [cytotoxic, full curve]"
